In article PMC7819943, “Rice protein-binding microarrays: a tool to detect cis-acting elements near promoter regions in rice”:
The list shows a part of the results.

target: T1, OsSMF1 (Oryza sativa, UniProt Q6ZLB0 1-436); test: protein-binding microarray (RPBM); PBS, 2% BSA, 51.3 ng/ul salmon testes DNA, 50 uM zinc acetate, 200 nM TF, 25 C, 1 h; high values mean tight binding; conditions: protein: recombinant; tags: N-terminal polyhistidine and DsRed monomer fusion (pET32a); chain copies: 2; label: CyDye5-dUTP incorporated in the synthesized complementary strand; 3' TTTTT single-stranded linker to array surface; dsDNA, one strand shown
T1 sequence: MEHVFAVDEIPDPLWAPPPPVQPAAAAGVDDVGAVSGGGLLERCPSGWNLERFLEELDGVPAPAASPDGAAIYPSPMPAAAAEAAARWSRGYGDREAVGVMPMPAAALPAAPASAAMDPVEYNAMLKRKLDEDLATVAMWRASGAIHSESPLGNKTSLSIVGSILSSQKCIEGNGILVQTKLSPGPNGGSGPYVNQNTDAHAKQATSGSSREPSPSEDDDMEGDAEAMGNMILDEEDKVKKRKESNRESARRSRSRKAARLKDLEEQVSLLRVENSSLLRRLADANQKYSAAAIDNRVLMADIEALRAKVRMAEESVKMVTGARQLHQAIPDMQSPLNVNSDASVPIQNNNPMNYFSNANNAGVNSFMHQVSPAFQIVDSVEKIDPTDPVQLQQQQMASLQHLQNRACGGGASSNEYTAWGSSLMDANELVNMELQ
Summary of the method: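 An Axon 4000B scanner gave the binding signal as per-feature fluorescence intensity in arbitrary units. This followed washing of a custom Agilent array that had been incubated for 1 h at 25 °C with 200 nM protein in PBS, 2% BSA, salmon testes DNA and 50 µM zinc acetate. The proteins were transcription factors fused at the N-terminus to polyhistidine and DsRed, expressed in E. coli BL21-CodonPlus and purified on Ni–NTA.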

| Sequence | binding signal |
| --- | --- |
| GTATTTATAGAAGGTGAGTATACACGTGTGTATATGAGCGCGGAGTCACCTAGTGCAG | 9970 fluorescence intensity (a.u.) |
| ACATATAAGCGCCACGTCAATACCACACCAGATGAAAACCCGGAGTCACCTAGTGCAG | 10800 fluorescence intensity (a.u.) |
| TATCAAAACTTCATTAATTTATTACGCATGTGTAGGTAGACGGAGTCACCTAGTGCAG | 31800 fluorescence intensity (a.u.) |
| ATTCCTTTTCTGCCGGGAGCCCTGGGCTACGGTACAAGAGCGGAGTCACCTAGTGCAG | 23800 fluorescence intensity (a.u.) |
| AGATATATAGATTTTATTTATGACGTACTACTTGTACGTTCGGAGTCACCTAGTGCAG | 5130 fluorescence intensity (a.u.) |
| AAAGTCAGAGCTGCAAAAGCGATGGGATCGAGAGCCTCGACGGAGTCACCTAGTGCAG | 3920 fluorescence intensity (a.u.) |
| TCCCGTTTCCCTTTCTATATTACGTGGAGTAGCCGGGTGGCGGAGTCACCTAGTGCAG | 4620 fluorescence intensity (a.u.) |
| AAACGATGACTGTTAAATAGGGATTAAAAGGAAAGGATGGCGGAGTCACCTAGTGCAG | 41200 fluorescence intensity (a.u.) |
| TGAGTGGGAATGCCATGACCGTATTACGTAGGCCCGGTGACGGAGTCACCTAGTGCAG | 3460 fluorescence intensity (a.u.) |
| TGCTGTAGCAAGGAGGCACGTGACGCAAGCATCAACGTCACGGAGTCACCTAGTGCAG | 5480 fluorescence intensity (a.u.) |
| TCCTCCACATCATCATTTGAGTCTATATGGCATCTTGGAACGGAGTCACCTAGTGCAG | 9760 fluorescence intensity (a.u.) |
| CCTCTGTGAATCACTGCTCAAACATACCCCTAGGACCTGTCGGAGTCACCTAGTGCAG | 3630 fluorescence intensity (a.u.) |
| CTGAACACACCATCGTCATTCACAGGTATGGTAAAAGGGCCGGAGTCACCTAGTGCAG | 5100 fluorescence intensity (a.u.) |
| TAATATTCAATAACTCCTATGGTGACGTCAAGCATCAATACGGAGTCACCTAGTGCAG | 10000 fluorescence intensity (a.u.) |
| GATGCAAAGAGAGCTACTAGCTGAGTTGGATGGAATTAACCGGAGTCACCTAGTGCAG | 5550 fluorescence intensity (a.u.) |
| CTCGGTGGGTGCAGGGTCCCAACGGGGCCGAGGGAAGGTGCGGAGTCACCTAGTGCAG | 3260 fluorescence intensity (a.u.) |
| GCTCGAGCCCACATGTCAGCGTCCGCGTGGCCCGGCTTCCCGGAGTCACCTAGTGCAG | 3260 fluorescence intensity (a.u.) |
| ACTCCACGAGTCATCGAGTCGTGAGGAGTGACAACACGTTCGGAGTCACCTAGTGCAG | 4740 fluorescence intensity (a.u.) |
| CAATGTTTAGCCTATGACAATGTGGATGCACTACTTAATACGGAGTCACCTAGTGCAG | 3160 fluorescence intensity (a.u.) |
| AGAGGGACGTCGACGCGTGGTGCCGTGGTGGTGTCGCTCGCGGAGTCACCTAGTGCAG | 3400 fluorescence intensity (a.u.) |
| TAATAACAACCTAGTACAGAAATCAAACTTGGTTTTGCTGCGGAGTCACCTAGTGCAG | 7980 fluorescence intensity (a.u.) |

| Sequence | binding signal |
| --- | --- |
| AAAAGAATCACCATTAAACTAAAACCACATCACCAGTTCACGGAGTCACCTAGTGCAG | 4660 fluorescence intensity (a.u.) |
| ACCGTTGAAGTCTGAATAACATACATAGCTTGTAATATTGCGGAGTCACCTAGTGCAG | 16400 fluorescence intensity (a.u.) |
| GGGCATTTGCATCATTCAACCACGTGGTCGTTACATTATACGGAGTCACCTAGTGCAG | 3740 fluorescence intensity (a.u.) |
| CATAAAACCACATCATCTTATTTTATATTTAAATCATCATCGGAGTCACCTAGTGCAG | 4300 fluorescence intensity (a.u.) |
| TCACCCATTAACGACATGGGCTCTCCACGTTCAGCCATGGCGGAGTCACCTAGTGCAG | 3300 fluorescence intensity (a.u.) |
| TTTCCTTTTGTTGACTAGGATGTCATGTTAGTGAAACCAACGGAGTCACCTAGTGCAG | 14600 fluorescence intensity (a.u.) |
| AAAACGTAATCCCTTCGTCCCTTAATATAAGAGATTTTGACGGAGTCACCTAGTGCAG | 25600 fluorescence intensity (a.u.) |
| AAGTGCCTACCAAGCCAGCATCGTGTCATAGCCGGAGCATCGGAGTCACCTAGTGCAG | 3730 fluorescence intensity (a.u.) |
| GTCGAGCAATCCTTCATCAAAACACCATCACCAACGAGTCCGGAGTCACCTAGTGCAG | 3780 fluorescence intensity (a.u.) |
| AGTAGCGAGATCCAACGGCTCAGGACATCGCCACGTGGCGCGGAGTCACCTAGTGCAG | 27700 fluorescence intensity (a.u.) |
| AGTGATGCGGGACCCGATGATGAGTGAGGCTGACATGTGGCGGAGTCACCTAGTGCAG | 4920 fluorescence intensity (a.u.) |
| GGACGAGTGCGGCGGCGACAACCATGGCGGATGAGGGCGGCGGAGTCACCTAGTGCAG | 4250 fluorescence intensity (a.u.) |
| ACACCACGTATGGTAGTGGCACGCACGTGGCTGACCCGGACGGAGTCACCTAGTGCAG | 7140 fluorescence intensity (a.u.) |
| AGCCTGTTGTGTTCCTCCATGGCGGCCCTGGAGCTGGCACCGGAGTCACCTAGTGCAG | 3260 fluorescence intensity (a.u.) |
| ACAGCAAAGCTGCACTTTCAGGGGCTATCGCAAGATCAATCGGAGTCACCTAGTGCAG | 4440 fluorescence intensity (a.u.) |
| GGCGCCAGCGCCACGCGTCGACTCCTCATTGGCTCCCACCCGGAGTCACCTAGTGCAG | 8630 fluorescence intensity (a.u.) |
| ACCAAGCTCTTCCCGTGCACGTGTGGTAGGCAGAACGTGCCGGAGTCACCTAGTGCAG | 3540 fluorescence intensity (a.u.) |
| GATGACACGTGCCTTGTGATGTCAACGCTATGTGCCGCCTCGGAGTCACCTAGTGCAG | 10300 fluorescence intensity (a.u.) |
| TCAAACCAGGGACTTTGCGTGGAGGAGAGGGGCGGCGGGGCGGAGTCACCTAGTGCAG | 5960 fluorescence intensity (a.u.) |
| GCTGGCCAGCCGCGGCCACGCCGTCACCTTCGTCTCCACGCGGAGTCACCTAGTGCAG | 3530 fluorescence intensity (a.u.) |
| CCTGTGCGCCGCCGTGTCCTGTTGTTGGAGAGCTGTCGCCCGGAGTCACCTAGTGCAG | 4420 fluorescence intensity (a.u.) |

In another format: results already given
GGACGAGTGCGGCGGCGACAACCATGGCGGATGAGGGCGGCGGAGTCACCTAGTGCAG
  binding signal: 4250 fluorescence intensity (a.u.)
ACACCACGTATGGTAGTGGCACGCACGTGGCTGACCCGGACGGAGTCACCTAGTGCAG
  binding signal: 7140 fluorescence intensity (a.u.)
